Reference: PubChem BioAssay AID743458 (Peter MacCallum Cancer Centre, 2014)
Shown is a random part of about 1,800 reagents. 732 of them (41%) count as active. 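Calls are per siRNA reagent; a gene was deemed confirmed only if most of its four siRNAs scored.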 Unmarked entries are inactive. Reagents against one gene are numbered here.

Assay: 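Find knock-downs that make vorinostat-resistant colon cancer cells sensitive again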 (follow-up of hits)
System: human HCT116-VR colon cancer cells made resistant to vorinostat
Reagent: single siRNA or pool against human genes, 25 nM per single siRNA
Duration: about 72 h after transfection, including 24 h of drug
Conditions: vorinostat, 2.5 µM final, for 24 h
Detection: 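Cell viability by fluorescence and apoptosis by caspase 3/7 luminescence under vorinostat, background-corrected, averaged across two plate copies and given as fold change versus mock transfection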
Direction: viability relative to mock: higher = more living cells than mock; caspase activity relative to mock: higher = more apoptosis than mock
Call rule: 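An siRNA counts as active if classed as reduced viability or as caspase activation, otherwise inactive; a hit class needed wells that remained healthy in the absence of drug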

gene symbol,reagent no.,viability relative to mock,caspase activity relative to mock,viability hit class,caspase hit class
MED28 (mediator complex subunit 28),1,0.48,4.08,no change,no change
MED28 (mediator complex subunit 28),2,0.87 (active),4.32,no change,caspase activation
MED28 (mediator complex subunit 28),3,0.7,1.02,no change,no change
MED28 (mediator complex subunit 28),4,0.99 (active),3.08,no change,caspase activation
TBC1D20 (TBC1 domain family member 20),1,0.7 (active),4.73,no change,caspase activation
TBC1D20 (TBC1 domain family member 20),2,0.66,1.14,no change,no change
TBC1D20 (TBC1 domain family member 20),3,0.38 (active),3.18,reduced viability,caspase activation
TBC1D20 (TBC1 domain family member 20),4,0.56 (active),3.46,reduced viability,caspase activation
GNG8 (G protein subunit gamma 8),1,0.3,1.83,no change,no change
GNG8 (G protein subunit gamma 8),2,0.9 (active),4.02,no change,caspase activation
GNG8 (G protein subunit gamma 8),3,0.66 (active),4.28,no change,caspase activation
GNG8 (G protein subunit gamma 8),4,0.64 (active),3.67,no change,caspase activation
RPAP2 (RNA polymerase II associated protein 2),1,0.32,4.73,no change,no change
RPAP2 (RNA polymerase II associated protein 2),2,0.98,1.25,no change,no change
RPAP2 (RNA polymerase II associated protein 2),3,0.74,1.46,no change,no change
RPAP2 (RNA polymerase II associated protein 2),4,0.94,1.09,no change,no change
TRIL (TLR4 interactor with leucine rich repeats),1,0.82,1.16,no change,no change
TRIL (TLR4 interactor with leucine rich repeats),2,0.7,1.08,no change,no change
TRIL (TLR4 interactor with leucine rich repeats),3,0.92 (active),2.63,no change,caspase activation
TRIL (TLR4 interactor with leucine rich repeats),4,0.62,1.25,no change,no change
MARK3 (microtubule affinity regulating kinase 3),1,0.76,1.2,no change,no change
MARK3 (microtubule affinity regulating kinase 3),2,1.03,1.06,no change,no change
MARK3 (microtubule affinity regulating kinase 3),3,1.06,1.21,no change,no change
MARK3 (microtubule affinity regulating kinase 3),4,0.88 (active),3.44,no change,caspase activation
KLHDC3 (kelch domain containing 3),1,0.68 (active),7.24,no change,caspase activation
KLHDC3 (kelch domain containing 3),2,0.93,1.03,no change,no change
KLHDC3 (kelch domain containing 3),3,0.85,2.78,no change,no change
KLHDC3 (kelch domain containing 3),4,0.76,1.68,no change,no change
CCDC88A (coiled-coil and HOOK domain protein 88A),1,0.66,1.06,no change,no change
CCDC88A (coiled-coil and HOOK domain protein 88A),2,0.9,1.06,no change,no change
CCDC88A (coiled-coil and HOOK domain protein 88A),3,0.82,1.15,no change,no change
CCDC88A (coiled-coil and HOOK domain protein 88A),4,0.86,1.67,no change,no change
GPI (glucose-6-phosphate isomerase),1,0.94,0.76,no change,no change
GPI (glucose-6-phosphate isomerase),2,0.72 (active),3.21,no change,caspase activation
GPI (glucose-6-phosphate isomerase),3,0.89,0.9,no change,no change
GPI (glucose-6-phosphate isomerase),4,0.68,2.02,no change,no change
NDUFA7 (NADH:ubiquinone oxidoreductase subunit A7),1,0.52 (active),2.92,reduced viability,caspase activation
NDUFA7 (NADH:ubiquinone oxidoreductase subunit A7),2,0.77,2.45,no change,no change
NDUFA7 (NADH:ubiquinone oxidoreductase subunit A7),3,0.62,0.8,no change,no change
NDUFA7 (NADH:ubiquinone oxidoreductase subunit A7),4,1.07,1.44,no change,no change
POLR2D (RNA polymerase II subunit D),1,0.14 (active),3.96,reduced viability,caspase activation
POLR2D (RNA polymerase II subunit D),2,0.4 (active),3.88,reduced viability,caspase activation
POLR2D (RNA polymerase II subunit D),3,0.26 (active),3.56,reduced viability,caspase activation
POLR2D (RNA polymerase II subunit D),4,0.52 (active),4,reduced viability,caspase activation
ANGPT1 (angiopoietin 1),1,0.6 (active),2.66,no change,caspase activation
ANGPT1 (angiopoietin 1),2,0.94,1.6,no change,no change
ANGPT1 (angiopoietin 1),3,0.38 (active),3.37,reduced viability,caspase activation
ANGPT1 (angiopoietin 1),4,0.95,1.25,no change,no change
NKX6-3 (NK6 homeobox 3),1,0.84,1.32,no change,no change
NKX6-3 (NK6 homeobox 3),2,0.48,4.62,no change,no change
NKX6-3 (NK6 homeobox 3),3,0.75,1.94,no change,no change
NKX6-3 (NK6 homeobox 3),4,0.91 (active),2.68,no change,caspase activation
ANO1 (anoctamin 1),1,0.1,1.62,no change,no change
ANO1 (anoctamin 1),2,0.88,1,no change,no change
ANO1 (anoctamin 1),3,0.96,1.18,no change,no change
ANO1 (anoctamin 1),4,0.52 (active),3.44,reduced viability,caspase activation
LCE3C (late cornified envelope 3C),1,1.02 (active),3.71,no change,caspase activation
LCE3C (late cornified envelope 3C),2,0.67,1.97,no change,no change
LCE3C (late cornified envelope 3C),3,0.39,2.29,no change,no change
LCE3C (late cornified envelope 3C),4,0.67 (active),4.67,no change,caspase activation
IRX2-DT (IRX2 divergent transcript),1,0.92,2.44,no change,no change
IRX2-DT (IRX2 divergent transcript),2,0.44 (active),4.92,reduced viability,caspase activation
IRX2-DT (IRX2 divergent transcript),3,0.92,1.29,no change,no change
IRX2-DT (IRX2 divergent transcript),4,0.76 (active),8.19,no change,caspase activation
LMTK3 (lemur tail kinase 3),1,0.9,1.27,no change,no change
LMTK3 (lemur tail kinase 3),2,0.78,2.17,no change,no change
LMTK3 (lemur tail kinase 3),3,0.58,2.19,no change,no change
LMTK3 (lemur tail kinase 3),4,0.86,2.38,no change,no change
CSDC2 (cold shock domain containing C2),1,0.97,1.93,no change,no change
CSDC2 (cold shock domain containing C2),2,0.52 (active),4.82,reduced viability,caspase activation
CSDC2 (cold shock domain containing C2),3,0.74,1.04,no change,no change
CSDC2 (cold shock domain containing C2),4,0.52 (active),2.22,reduced viability,no change
AP5S1 (adaptor related protein complex 5 subunit sigma 1),1,0.4 (active),4.54,reduced viability,caspase activation
AP5S1 (adaptor related protein complex 5 subunit sigma 1),2,1.08,1.32,no change,no change
AP5S1 (adaptor related protein complex 5 subunit sigma 1),3,0.82 (active),3.06,no change,caspase activation
AP5S1 (adaptor related protein complex 5 subunit sigma 1),4,0.84 (active),3.16,no change,caspase activation

Look-ups from the list:
IRX2-DT (IRX2 divergent transcript) #2, caspase activity relative to mock = 4.92 (active)
For “caspase activity relative to mock”, CCDC88A (coiled-coil and HOOK domain protein 88A) #3 is entered as 1.15
Value for ANGPT1 (angiopoietin 1) #1 in “viability hit class”: no change (active)
Under “caspase hit class”, GPI (glucose-6-phosphate isomerase) #4 is entered as no change
